In patent US20020165135A1 (HESKA, published 2002) one finds binding data, which are given here for one molecule.

Test [1] addresses T1, recombinant canine IL-13 (canine, UniProt Q9N0W9 21-131, limits assumed).
T1 sequence (looked up): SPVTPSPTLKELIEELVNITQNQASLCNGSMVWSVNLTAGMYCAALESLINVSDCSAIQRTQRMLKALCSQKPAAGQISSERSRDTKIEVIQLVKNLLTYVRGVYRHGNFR
In words: inferred from inhibition of IL-13 stimulated TF-1 cell proliferation.

The target of test [2] is T1, recombinant canine IL-13. Put plainly: inferred from prevention of IL-13 stimulated antigen-specific IgE production by canine PBMC.

No constants are given. Whether binding was seen depends on the method and setting. Some entries that bind do so weakly or less than the wild type. Sequences can lack the tags named with a protein.

B1: PCaIL-13Rα2-Fc-B9563 (Fc fusion)
chain: MSMLSNAEIKVNPPQDFEIVDPGYLGYLSLQWQPPLFPDNFKECTIEYELKYRNIDSENWKTIITKNLHYKDGFDLNKGIEAKINTLLPAQCTNGSEVRSSWAETTYWTSPQGNRETKIQDMDCVYYNWQYLVCSWKPGMGVHFDTNYQLFYWYEGLDHSAECTDYIKVNGKNMGCRFPYLESSDYKDFYICVNGSSESQPIRPSYFIFQLQNIVKPMPPDYLSLTVKNSEEINLKWNMPKGPIPAKCFIYEIEFTEDGTTWVTTTVENEIQITRTSNESQKLCFLVRSKVNIYCSDDGIWSEWSDEQCWKGDIWKETGSNTKVDKPVAKECECKCNCNNCPCPGCGLLGGPSVFIFPPKPKDILVTARTPTVTCVVVDLDPENPEVQISWFVDSKQVQTANTQPREEQSNGTYRVVSVLPIGHQDWLSGKQFKCKVNNKALPSPIEEIISKTPGQAHQPNVYVLPPSRDEMSKNTVTLTCLVKDFFPPEIDVEWQSNGQQEPESKYRMTPPQLDEDGSYFLYSKLSVDKSRWQRGDTFICAVMHEALHNHYTQISLSHSPGK
Regarding B1, the binding result with recombinant canine IL-13 [1] and in the test with recombinant canine IL-13 [2] was “binds” throughout.
